Here are results for one molecule from doi:10.1101/2023.06.12.544600.

This assay concerns the target T1, Dmo2p with its C-terminal fused to protein C epitope followed by polyhistidine (Dmo2p-CH) (S. cerevisiae) (UniProt Q12082).
T1 sequence: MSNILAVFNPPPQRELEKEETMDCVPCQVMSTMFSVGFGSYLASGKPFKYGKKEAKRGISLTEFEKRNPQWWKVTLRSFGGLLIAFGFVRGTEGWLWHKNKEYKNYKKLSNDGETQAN
In words: co-IP.

These are yes or no findings as the source states them, for the method shown. In cells and extracts the contact can be indirect. Some binding calls cover weakened binding; strength is not graded here. Sequences can lack the tags named with a protein.

B1: Cox2p, subunit two of the cytochrome c oxidase complex (protein, UniProt P00410 16-251)
chain: DVPTPYACYFQDSATPNQEGILELHDNIMFYLLVILGLVSWMLYTIVMTYSKNPIAYKYIKHGQTIEVIWTIFPAVILLIIAFPSFILLYLCDEVISPAMTIKAIGYQWYWKYEYSDFINDSGETVEFESYVIPDELLEEGQLRLLDTDTSMVVPVDTHIRFVVTAADVIHDFAIPSLGIKVDATPGRLNQVSALIQREGVFYGACSELCGTGHANMPIKIEAVSLPKFLEWLNEQ
With B1, the binding entry is recorded as “binds”.
